These are yes or no findings as the source states them, for the method shown. Binding seen in cells or lysates may run through a third protein. Binding calls can cover weak binding; strength is not graded here.
Target: DksA1 with a 3XFLAG tag at its C-terminus (DksA1::3xFLAG) (Pseudomonas aeruginosa PAO1) (UniProt Q9KKG5)
Experiment: co-IP; lysate of PAO1 dksA1::3xFLAG grown 6 to 8 h in LB with DMSO, 150 μM Dkstatin-1 or 150 μM Dkstatin-2; M2 anti-FLAG magnetic beads overnight at 4 °C; lysis buffer 50 mM Tris-HCl pH 7.5, 75 mM NaCl, 10 mM MgCl2, 10% glycerol, 1 mM EDTA, 0.01% Triton X-100; one wash; blot with anti-RpoB

Protein sequences, listed by entry. Tags and fused reporters are not part of them.
UniProt Q51561: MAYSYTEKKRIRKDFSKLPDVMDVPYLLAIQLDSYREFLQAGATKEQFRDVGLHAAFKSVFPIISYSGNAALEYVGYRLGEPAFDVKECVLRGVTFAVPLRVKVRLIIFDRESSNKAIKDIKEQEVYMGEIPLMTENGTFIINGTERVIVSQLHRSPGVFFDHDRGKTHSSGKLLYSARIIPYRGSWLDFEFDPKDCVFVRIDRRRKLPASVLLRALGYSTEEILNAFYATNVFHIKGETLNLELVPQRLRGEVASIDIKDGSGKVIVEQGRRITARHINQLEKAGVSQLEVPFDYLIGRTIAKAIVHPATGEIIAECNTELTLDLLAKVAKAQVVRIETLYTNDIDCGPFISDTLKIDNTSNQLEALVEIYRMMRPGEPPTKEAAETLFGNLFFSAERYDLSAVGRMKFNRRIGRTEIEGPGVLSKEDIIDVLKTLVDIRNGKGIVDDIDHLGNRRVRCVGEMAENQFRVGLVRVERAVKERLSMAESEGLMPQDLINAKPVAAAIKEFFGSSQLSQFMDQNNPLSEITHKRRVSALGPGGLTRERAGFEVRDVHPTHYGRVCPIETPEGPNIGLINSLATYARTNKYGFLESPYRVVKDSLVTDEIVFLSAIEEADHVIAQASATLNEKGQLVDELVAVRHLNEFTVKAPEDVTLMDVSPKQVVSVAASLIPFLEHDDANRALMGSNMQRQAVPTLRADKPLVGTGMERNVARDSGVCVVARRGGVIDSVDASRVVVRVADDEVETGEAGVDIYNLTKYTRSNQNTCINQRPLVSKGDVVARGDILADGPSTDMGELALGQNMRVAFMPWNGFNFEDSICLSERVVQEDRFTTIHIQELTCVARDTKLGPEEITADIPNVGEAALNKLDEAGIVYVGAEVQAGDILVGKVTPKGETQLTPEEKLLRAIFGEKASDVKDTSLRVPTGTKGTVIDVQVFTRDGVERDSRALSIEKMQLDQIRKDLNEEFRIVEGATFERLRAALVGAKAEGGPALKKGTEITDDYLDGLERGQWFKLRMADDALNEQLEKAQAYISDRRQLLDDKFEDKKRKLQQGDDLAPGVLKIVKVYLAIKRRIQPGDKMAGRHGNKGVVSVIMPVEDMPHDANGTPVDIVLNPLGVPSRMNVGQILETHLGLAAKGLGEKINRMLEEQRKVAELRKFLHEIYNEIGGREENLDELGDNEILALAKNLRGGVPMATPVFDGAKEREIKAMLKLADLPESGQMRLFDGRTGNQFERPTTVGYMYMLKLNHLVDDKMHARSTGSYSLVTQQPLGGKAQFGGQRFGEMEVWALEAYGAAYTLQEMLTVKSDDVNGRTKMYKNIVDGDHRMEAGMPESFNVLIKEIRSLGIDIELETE

binding: binds
Substance: RNA polymerase β subunit (RpoB) (from UniProt Q51561 1-1357)
